Where a name gives a salt, the structure may show the parent alone. This is one part of the list. Repeats in this data set agree poorly, so a single value says little.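 The cells were human embryonic kidney cells carrying a Renilla luciferase gene, driven by the HSV-TK promoter, on a plasmid put in briefly by transfection. This is the first-round screen of about ten thousand compounds, looking for ones that raise reporter output.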
Test system: HEK 293FT
Assay: log relative Renilla luciferase luminescence (reporter expression vs reference, reference not stated) (log (base not stated)); higher = higher recombinant reporter expression
Details: 10 µM; time after transfection 48 h

| Structure (SMILES) | log |
| --- | --- |
| CC[N+](CC)(CC(=O)Nc1c(C)cccc1C)Cc1ccccc1 [denatonium benzoate] | 0.213 |
| CC1(C)O[C@@H]2[C@@H](CO[C@@]3(COS(N)(=O)=O)OC(C)(C)O[C@@H]23)O1 [topiramate] | 0.123 |
| CN(C)c1cc(NC(=O)CNC(C)(C)C)c(O)c2c1C[C@H]1C[C@H]3[C@H](N(C)C)C(O)=C(C(N)=O)C(=O)[C@@]3(O)C(O)=C1C2=O [tigecycline] | 0.246 |
| CC(=O)O[C@@H]1CC[C@@]2(C)C(C[C@@H](OC(C)=O)[C@@]3(C)C4=CC(=O)O[C@@H](c5ccoc5)[C@]4(C)CCC23)C1(C)C (stereo partly drawn) [3alpha-acetoxydihydrodeoxygedunin] | 0.0463 |
| Cc1cccc(Nc2ccncc2S(=O)(=O)NC(=O)NC(C)C)c1 [torsemide] | 0.191 |
| O=C(O)CCCC[C@@H]1CCSS1 [thioctic acid] | 0.0382 |
| CC(C)CCC[C@@H](C)[C@H]1CC[C@H]2[C@@H]3CC[C@H]4CC(=O)CC[C@]4(C)[C@H]3CC[C@]12C [cholestan-3-one] | 0.0326 |
| C=C(C)[C@H]1COc2cc3oc(=O)ccc3cc2O1 [obliquin] | 0.0665 |
| NC(=O)N1c2ccccc2CC(=O)c2ccccc21 [oxcarbazepine] | 0.125 |
| O=C(C=Cc1ccc(O)cc1)c1ccccc1O [2',4-dihydroxychalcone] | 0.0499 |
| COc1cc2oc3cc(OC)c(OC)c(CC=C(C)C)c3c(=O)c2c(O)c1CC=C(C)C [1-hydroxy-3,6,7-trimethoxy-2,8-diprenylxanthone] | -0.00831 |
| CC(C)Cn1cnc2c(N)nc3ccccc3c21 [imiquimod] | 0.217 |
| CC(=O)OCC(=O)[C@@]1(O)[C@H](OC(C)=O)C[C@H]2[C@@H]3CCC4=CC(=O)C=C[C@]4(C)[C@@]3(F)[C@@H](O)C[C@@]21C [triamcinolone diacetate] | -0.145 |
| NCCc1cc[nH]n1 [betazole hydrochloride] | -0.0431 |
| Cc1c(NC(C)C)c(=O)n(-c2ccccc2)n1C [ramifenazone] | 0.0224 |
| CC(C[N+](C)(C)C)OC(N)=O (configuration not stated) [bethanechol chloride] | -0.128 |
| CC(=O)Oc1ccc(-c2coc3c4c(c(CC=C(C)C)c(OC(C)=O)c3c2=O)OC(C)(C)C=C4)cc1OC(C)=O [pomiferin triacetate] | -0.431 |
| CCCCCCCCCCOc1cc2c(O)c(C(=O)OCC)cnc2cc1OCC [decoquinate] | 0.115 |
| CN(C)CCN(Cc1ccc(Cl)cc1)c1ccccn1 [chloropyramine hydrochloride] | -0.113 |
| COc1ccc([C@@H]2Sc3ccccc3N(CCN(C)C)C(=O)[C@@H]2OC(C)=O)cc1 [diltiazem hydrochloride] | -0.138 |
| Cc1cn([C@H]2C[C@H](N=[N+]=[N-])[C@@H](CO)O2)c(=O)[nH]c1=O [zidovudine [azt]] | 0.0616 |
| O=C(O)C[C@H](O)C[C@H](O)/C=C/c1c(C2CC2)nc2ccccc2c1-c1ccc(F)cc1 [pitavastatin calcium] | -0.186 |
| Cc1ccc(C)c(OCCCC(C)(C)C(=O)O)c1 [gemfibrozil] | 0.151 |
| COC(=O)c1c(C)c2c(c(C)c1O)OC(=O)c1c(C)c(Cl)c(O)c(Cl)c1O2 [leoidin] | -0.0633 |

| Structure (SMILES) | log |
| --- | --- |
| O=C(CCCN1CCC(O)(c2ccc(Cl)cc2)CC1)c1ccc(F)cc1 [haloperidol] | 0.101 |
| NC(=O)c1ccc[n+]([C@@H]2O[C@H](COP(=O)([O-])OP(=O)(O)OC[C@H]3O[C@@H](n4cnc5c(N)ncnc54)[C@H](O)[C@@H]3O)[C@@H](O)[C@H]2O)c1 [nadide] | -0.294 |
| NCC(=O)CCC(=O)O [aminolevulinic acid hydrochloride] | 0.215 |
| COc1ccc(CN(CCN(C)C)c2ncccn2)cc1 [thonzylamine hydrochloride] | 0.0895 |
| COc1c2ccoc2cc2oc(C)cc(=O)c12 [visnagin] | -0.0201 |
| CCCCCC(=O)Cc1cc(O)cc(O)c1C(=O)Oc1cc(CC(=O)CCCCC)c(C(=O)O)c(OC)c1 [arthonioic acid] | 0.0985 |
| COc1ccc(-c2coc3cc(O)ccc3c2=O)c(O)c1O [koparin] | 0.185 |
| NCCS [cysteamine hydrochloride] | -0.113 |
| COCCOC(=O)C1=C(C)NC(C)=C(C(=O)OC(C)C)C1c1cccc([N+](=O)[O-])c1 (configuration not stated) [nimodipine] | 0.228 |
| CN1C(C(=O)Nc2ccccn2)=C(O)c2ccccc2S1(=O)=O [piroxicam] | -0.0622 |
| COc1c(C)c2c(c(O)c1C/C=C(\C)CCC(=O)OCCN1CCOCC1)C(=O)OC2 [mycophenolate mofetil] | -0.209 |
| C[C@]12CCC(=O)C=C1C=C[C@@H]1[C@@H]2CC[C@@]2(C)[C@H]1CC[C@@]21CCC(=O)O1 [canrenone] | -0.141 |
| CC1(C)[C@@H](O)CC[C@]2(C)[C@H]3C(=O)C=C4[C@@H]5C[C@@](C)(C(=O)O)CC[C@]5(C)CC[C@@]4(C)[C@]3(C)CC[C@@H]12 [enoxolone] | 0.0271 |
| COc1ccc(CC(=O)c2ccc(O)cc2O)cc1 [ononetin] | -0.0363 |
| Nc1nc(=O)c2c([nH]1)NCC(CNc1ccc(C(=O)N[C@@H](CCC(=O)O)C(=O)O)cc1)=N2 [dihydrofolic acid] | -0.188 |
| CCOC(=O)c1ccc(O)cc1 [ethyl paraben] | -0.0943 |
| CC(O)CC(C)(C)O (configuration not stated) [hexylene glycol] | 0.141 |
| COc1ccc2cc1Oc1ccc(cc1)C[C@H]1c3c(cc4c(c3Oc3cc5c(cc3OC)CCN(C)[C@@H]5C2)OCO4)CCN1C [cepharanthine] | 0.0889 |
| Cn1c(=O)c2[nH]c(Br)nc2n(C)c1=O [pamabrom] | 0.113 |
| CC(C)(C)NCC(O)c1ccc(O)c(CO)c1 (configuration not stated) [albuterol] | -0.0924 |
| Cc1c(OCC(F)(F)F)ccnc1C[S+]([O-])c1nc2ccccc2[nH]1 (configuration not stated) [lansoprazole] | 0.0949 |
| O=C(/C=C/c1ccccc1)c1ccc(O)cc1O [2',4'-dihydroxychalcone] | 0.174 |
| O=C([O-])C(O)[C@H](O)[C@@H](O)[C@H](O)[C@H](O)CO.O=C([O-])C(O)[C@H](O)[C@@H](O)[C@H](O)[C@H](O)CO.[Ca+2] (some centres not stated) [calcium gluceptate] | 0.0937 |

Of the compounds above, 2 have a furan ring, fused or not.

| Structure (SMILES) | log |
| --- | --- |
| CC(=O)O[C@@H]1CC[C@@]2(C)C(C[C@@H](OC(C)=O)[C@@]3(C)C4=CC(=O)O[C@@H](c5ccoc5)[C@]4(C)CCC23)C1(C)C (stereo partly drawn) [3alpha-acetoxydihydrodeoxygedunin] | 0.0463 |
| COc1c2ccoc2cc2oc(C)cc(=O)c12 [visnagin] | -0.0201 |
